Results on one molecule are retold here after PMC10982699.

No constants are given. Whether binding was seen depends on the method and setting. Some results given as binding are weak or reduced against the parent protein; the word gives no strength. Where a sequence is shown, tags or fusion partners need not be part of it.

The target in the assay is T1, GST-Dpb4 (fission yeast (Schizosaccharomyces pombe)) (UniProt P87174).
T1 sequence: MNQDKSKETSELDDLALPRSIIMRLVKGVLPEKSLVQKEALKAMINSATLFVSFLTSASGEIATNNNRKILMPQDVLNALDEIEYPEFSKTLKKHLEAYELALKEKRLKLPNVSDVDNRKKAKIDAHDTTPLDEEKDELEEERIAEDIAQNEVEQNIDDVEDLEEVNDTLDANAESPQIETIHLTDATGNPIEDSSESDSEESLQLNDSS
Kind of assay: co-purification in two affinity steps; coexpression of GST-Dpb4 and 6xHis-Dpb3, then Talon and GST resins.

B1: 6xHis-Dpb3 (protein, UniProt C6Y4D0 1-87)
chain: MEKTYGKTVLPLSRVKRIIKQDEDVHYCSNASALLISVATELFVEKLATEAYQLAKLQKRKGIRYRDVEDVVRKDDQFEFLSDLFSI
As for B1, the binding entry is “binds”.
